One assay concerns the target T1, LMAN1, Myc-tagged (UniProt P49257).
T1 sequence: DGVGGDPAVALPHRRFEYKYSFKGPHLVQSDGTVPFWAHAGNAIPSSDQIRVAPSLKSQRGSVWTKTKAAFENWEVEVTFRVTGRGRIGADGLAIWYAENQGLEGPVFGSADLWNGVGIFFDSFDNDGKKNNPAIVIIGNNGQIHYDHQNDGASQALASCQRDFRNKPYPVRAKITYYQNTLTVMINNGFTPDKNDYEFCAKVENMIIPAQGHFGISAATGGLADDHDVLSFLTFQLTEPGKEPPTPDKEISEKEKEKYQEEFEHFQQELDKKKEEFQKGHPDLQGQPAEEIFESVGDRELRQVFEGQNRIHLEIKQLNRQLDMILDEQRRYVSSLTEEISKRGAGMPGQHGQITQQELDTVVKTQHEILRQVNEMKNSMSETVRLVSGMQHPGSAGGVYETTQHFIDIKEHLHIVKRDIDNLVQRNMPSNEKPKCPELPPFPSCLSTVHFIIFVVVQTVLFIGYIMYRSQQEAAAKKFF
As to the kind of experiment: co-IP; FLAG-tagged AAT and Myc-tagged LMAN1 co-expressed in WT and MCFD2 KO 293T cells, also in MCFD2 KO cells stably expressing WT MCFD2 or MCFD2 D129E; lysis in 50 mM Tris-HCl pH 7.5, 150 mM NaCl, 1% Nonidet P-40, 0.05% SDS, 2 mM CaCl2; immunoprecipitation with anti-AAT, anti-FLAG or anti-Myc antibody, immunoblotting.

Protein sequences, listed by entry. Tags and fused reporters are not part of them. Lines headed by an entry give the natural chain unless they say otherwise; changes in a name come on top. Chains listed by the source or under a name are the forms on record and can include a tag or linker. Residues count along the entry.
α1-antitrypsin (AAT), wild type, C-terminally FLAG-tagged (P01009, residues 25-418): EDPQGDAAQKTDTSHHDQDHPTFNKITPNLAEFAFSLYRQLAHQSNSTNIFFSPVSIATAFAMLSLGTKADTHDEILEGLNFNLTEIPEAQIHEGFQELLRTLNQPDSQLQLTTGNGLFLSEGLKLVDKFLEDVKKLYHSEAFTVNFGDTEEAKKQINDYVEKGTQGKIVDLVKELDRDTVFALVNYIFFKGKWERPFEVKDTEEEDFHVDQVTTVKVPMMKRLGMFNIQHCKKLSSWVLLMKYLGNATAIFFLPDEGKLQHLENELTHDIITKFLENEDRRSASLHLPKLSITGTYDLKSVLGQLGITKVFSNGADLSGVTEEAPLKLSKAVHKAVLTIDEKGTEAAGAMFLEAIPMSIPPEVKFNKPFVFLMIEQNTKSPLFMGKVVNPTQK
α1-antitrypsin (AAT) N70Q mutant, C-terminally FLAG-tagged (P01009, form named): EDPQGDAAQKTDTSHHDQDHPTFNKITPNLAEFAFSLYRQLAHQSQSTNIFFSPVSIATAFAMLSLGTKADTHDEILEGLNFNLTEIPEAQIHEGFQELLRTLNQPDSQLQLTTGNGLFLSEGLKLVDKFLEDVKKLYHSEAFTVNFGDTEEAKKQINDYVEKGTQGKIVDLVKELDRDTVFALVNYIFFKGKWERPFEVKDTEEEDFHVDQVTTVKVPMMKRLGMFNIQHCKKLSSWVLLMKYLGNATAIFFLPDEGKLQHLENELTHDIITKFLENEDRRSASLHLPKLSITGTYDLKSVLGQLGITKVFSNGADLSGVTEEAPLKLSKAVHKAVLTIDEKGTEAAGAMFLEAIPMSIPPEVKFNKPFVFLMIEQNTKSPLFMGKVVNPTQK
α1-antitrypsin (AAT) N271Q mutant, C-terminally FLAG-tagged (P01009, form named): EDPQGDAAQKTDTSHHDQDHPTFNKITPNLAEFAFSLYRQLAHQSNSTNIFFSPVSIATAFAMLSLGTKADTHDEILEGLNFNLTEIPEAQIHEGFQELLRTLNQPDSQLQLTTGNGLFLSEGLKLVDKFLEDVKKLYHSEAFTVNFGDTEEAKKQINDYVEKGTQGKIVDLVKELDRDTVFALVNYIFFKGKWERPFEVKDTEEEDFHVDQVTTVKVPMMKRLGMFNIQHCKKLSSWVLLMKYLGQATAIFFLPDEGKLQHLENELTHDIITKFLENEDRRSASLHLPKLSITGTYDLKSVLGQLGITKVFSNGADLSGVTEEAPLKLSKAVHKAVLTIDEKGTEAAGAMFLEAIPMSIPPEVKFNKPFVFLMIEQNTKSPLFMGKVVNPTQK

Assay [1] concerns the target α1-antitrypsin (AAT), wild type, C-terminally FLAG-tagged (human) (UniProt P01009). Described as above.

These are yes or no findings as the source states them, for the method shown. In cells and extracts the contact can be indirect. Some results given as binding are weak or reduced against the parent protein; the word gives no strength. Tags and fused reporters may be left off the sequences shown.

“α1-antitrypsin (AAT) N70Q mutant, C-terminally FLAG-tagged (from UniProt P01009 25-418)”: in the assay with LMAN1, Myc-tagged, the binding result was “binds”. Regarding “α1-antitrypsin (AAT), wild type, C-terminally FLAG-tagged (from UniProt P01009 25-418)”, the binding result with LMAN1, Myc-tagged is recorded as “binds”.

Turning to “α1-antitrypsin (AAT) N271Q mutant, C-terminally FLAG-tagged (from UniProt P01009 25-418)”, in the assay with LMAN1, Myc-tagged, the binding result was “binds”.

B1: LMAN1, Myc-tagged (protein, UniProt P49257 31-510)
chain: T1 sequence
As for B1, the binding result in assay [1] is listed as “binds”.

The values above are taken from PMC9022998.
